The exact form of at least one protein or probe is not confirmed. Results from cells or extracts need not show a direct contact.
System: Tbx2a
Experiment: EMSA
Settings: 5 mM MgCl2; protein in a lysate after overexpression

Does “TTACGTACAAGGTGTGAATCCAATTTGTAGGGATTGAGGATT (double strand) [RH2 LCR]” bind?
Result: binds
